Source: paper doi:10.1101/2024.08.01.24310552
Results are given in words; binding and its absence hold for the method and conditions named. Binding seen in cells or lysates may run through a third protein. Some binding calls cover weakened binding; strength is not graded here. Tags and fused reporters may be left off the sequences shown.

T1: NXT2 missense variant c.268G>T p.(Ala90Ser) (human) (UniProt Q9NPJ8)
T1 sequence: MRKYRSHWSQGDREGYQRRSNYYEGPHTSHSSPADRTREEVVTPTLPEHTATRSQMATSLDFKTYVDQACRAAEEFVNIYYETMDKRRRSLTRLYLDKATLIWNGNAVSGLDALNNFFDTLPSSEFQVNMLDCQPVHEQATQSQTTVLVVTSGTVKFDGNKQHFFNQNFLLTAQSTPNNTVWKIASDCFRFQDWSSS

B1: FLAG-tagged NXF2 (wildtype) (protein, UniProt Q9GZY0 1-626)
chain: MCSTLKKCGTYRTEVAECHDHGSTFQGRKKGGSSFRDNFDKRSCHYEHGGYERPPSHCQENDGSVEMRDVHKDQQLRHTPYSIRCERRMKWHSEDEIRITTWRNRKPPERKMSQNTQDGYTRNWFKVTIPYGIKYDKAWLMNSIQSHCSDRFTPVDFHYVRNRACFFVQDASAASALKDVSYKIYDDENQKICIFVNHSTAPYSVKNKLKPGQMEMLKLTMNKRYNVSQQALDLQNLRFDPDLMGRDIDIILNRRNCMAATLKIIERNFPELLSLNLCNNKLYQLDGLSDITEKAPKVKTLNLSKNKLESAWELGKVKGLKLEELWLEGNPLCSTFSDQSAYVSAIRDCFPKLLRLDGRELSAPVIVDIDSSETMKPCKENFTGSETLKHLVLQFLQQYYSIYDSGDRQGLLGAYHDEACFSLAIPFDPKDSAPSSLCKYFEDSRNMKTLKDPYLKGELLRRTKRDIVDSLSALPKTQHDLSSILVDVWCQTERMLCFSVNGVFKEVEGQSQGSVLAFTRTFIATPGSSSSLCIVNDELFVRDASPQETQSAFSIPVSTLSSSSEPSLSQEQQEMVQAFSAQSGMKLEWSQKCLQDNEWNYTRAGQAFTMLQTEGKIPAEAFKQIS
B2: FLAG-tagged NXF3 (wildtype) (protein, UniProt Q9H4D5-1 1-531)
chain: MSLPSGHTTGHTDQVVQRRARCWDIYQRRFSSRSEPVNPGMHSSSHQQQDGDAAMHGAHMDSPVRYTPYTISPYNRKGSFRKQDQTHVNMEREQKPPERRMEGNMPDGTLGSWFKITVPFGIKYNEKWLLNLIQNECSVPFVPVEFHYENMHASFFVENASIAYALKNVSGKIWDEDNEKISIFVNPAGIPHFVHRELKSEKVEQIKLAMNQQCDVSQEALDIQRLPFYPDMVNRDTKMASNPRKCMAASLDVHEENIPTVMSAGEMDKWKGIEPGEKCADRSPVCTTFSDTSSNINSILELFPKLLCLDGQQSPRATLCGTEAHKRLPTCKGSFFGSEMLKNLVLQFLQQYYLIYDSGDRQGLLSAYHDEACFSLSIPFNPEDSAPSSFCKFFKDSRNIKILKDPYLRGELLKHTKLDIVDSLSALPKTQHDLSSFLVDMWYQTEWMLCFSVNGVFKEVEGQSQGSVLAFTRTFIATPGSSSSLCIVNDKLFVRDTSHQGTQSALFTLVPTAFSSSVPAFSQEQQKMLPS

Biological target: T1, NXT2 missense variant c.268G>T p.(Ala90Ser) (human)
Experiment: co-IP

Row | Binder | binding
1 | B1 | binds
2 | B2 | binds
